In patent publication US20180043012A1 (CSL BEHRING RECOMBINANT FACILITY, published 2018):
These are yes or no findings as the source states them, for the method shown. Some entries that bind do so weakly or less than the wild type.

Protein sequences, listed by entry. Tags and fused reporters are not part of them. Residues count along the entry.
UniProt P04275, residues 764-2813: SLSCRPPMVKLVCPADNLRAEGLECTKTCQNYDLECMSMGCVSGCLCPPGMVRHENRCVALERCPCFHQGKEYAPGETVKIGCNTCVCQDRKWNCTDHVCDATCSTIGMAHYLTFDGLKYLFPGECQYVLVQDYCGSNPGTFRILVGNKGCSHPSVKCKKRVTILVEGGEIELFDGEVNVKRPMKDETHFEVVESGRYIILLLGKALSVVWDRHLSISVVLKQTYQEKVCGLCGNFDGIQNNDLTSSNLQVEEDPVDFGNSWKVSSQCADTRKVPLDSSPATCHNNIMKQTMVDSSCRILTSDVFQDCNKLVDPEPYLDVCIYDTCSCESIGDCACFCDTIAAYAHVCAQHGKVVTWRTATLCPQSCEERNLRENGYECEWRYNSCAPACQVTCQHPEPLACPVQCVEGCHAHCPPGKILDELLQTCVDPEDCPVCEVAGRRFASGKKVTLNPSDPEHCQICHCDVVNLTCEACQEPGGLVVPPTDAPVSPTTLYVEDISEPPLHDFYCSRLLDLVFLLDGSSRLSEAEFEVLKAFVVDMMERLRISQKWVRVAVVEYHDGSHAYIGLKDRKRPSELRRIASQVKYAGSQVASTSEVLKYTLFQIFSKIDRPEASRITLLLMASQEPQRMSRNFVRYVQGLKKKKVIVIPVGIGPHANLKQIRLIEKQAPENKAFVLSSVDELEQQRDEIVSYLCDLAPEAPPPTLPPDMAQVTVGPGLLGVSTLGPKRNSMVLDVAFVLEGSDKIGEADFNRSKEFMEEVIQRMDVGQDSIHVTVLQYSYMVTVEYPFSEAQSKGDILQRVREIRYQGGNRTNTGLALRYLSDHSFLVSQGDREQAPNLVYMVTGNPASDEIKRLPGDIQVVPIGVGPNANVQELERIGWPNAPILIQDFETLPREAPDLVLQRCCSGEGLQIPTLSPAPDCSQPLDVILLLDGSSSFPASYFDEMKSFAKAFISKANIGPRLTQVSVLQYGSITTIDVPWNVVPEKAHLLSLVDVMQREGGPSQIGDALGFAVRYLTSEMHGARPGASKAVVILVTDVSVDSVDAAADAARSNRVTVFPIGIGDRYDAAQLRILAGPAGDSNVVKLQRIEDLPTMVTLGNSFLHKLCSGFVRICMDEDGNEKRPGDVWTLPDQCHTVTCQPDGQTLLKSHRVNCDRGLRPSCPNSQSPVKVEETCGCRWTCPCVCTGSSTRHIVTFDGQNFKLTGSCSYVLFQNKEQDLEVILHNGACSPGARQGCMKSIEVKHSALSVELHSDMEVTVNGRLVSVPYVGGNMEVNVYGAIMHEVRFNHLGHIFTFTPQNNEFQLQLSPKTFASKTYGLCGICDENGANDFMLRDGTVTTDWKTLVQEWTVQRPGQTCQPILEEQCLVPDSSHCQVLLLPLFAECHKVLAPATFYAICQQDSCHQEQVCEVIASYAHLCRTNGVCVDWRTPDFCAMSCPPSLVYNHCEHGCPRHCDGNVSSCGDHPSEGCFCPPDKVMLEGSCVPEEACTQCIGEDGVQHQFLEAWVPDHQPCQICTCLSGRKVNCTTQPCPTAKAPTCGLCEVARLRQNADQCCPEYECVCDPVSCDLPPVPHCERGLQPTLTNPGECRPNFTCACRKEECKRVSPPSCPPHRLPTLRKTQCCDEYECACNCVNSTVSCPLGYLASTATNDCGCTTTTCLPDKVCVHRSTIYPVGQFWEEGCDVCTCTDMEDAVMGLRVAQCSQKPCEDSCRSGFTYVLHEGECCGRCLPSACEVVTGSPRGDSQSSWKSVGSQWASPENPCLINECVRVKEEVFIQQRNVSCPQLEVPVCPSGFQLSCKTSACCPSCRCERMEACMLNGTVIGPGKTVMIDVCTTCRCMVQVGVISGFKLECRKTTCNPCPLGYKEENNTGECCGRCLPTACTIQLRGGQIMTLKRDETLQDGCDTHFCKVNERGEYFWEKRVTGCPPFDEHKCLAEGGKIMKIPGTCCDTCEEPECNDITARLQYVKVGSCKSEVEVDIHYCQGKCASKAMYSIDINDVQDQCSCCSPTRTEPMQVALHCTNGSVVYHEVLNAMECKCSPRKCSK

Key:
[1] = target: T1, mouse MGL1 (CLEC10A orthologous mouse receptor protein) (mouse) (UniProt P49300); assay: SPR, steady state affinity fit
T1 sequence (looked up): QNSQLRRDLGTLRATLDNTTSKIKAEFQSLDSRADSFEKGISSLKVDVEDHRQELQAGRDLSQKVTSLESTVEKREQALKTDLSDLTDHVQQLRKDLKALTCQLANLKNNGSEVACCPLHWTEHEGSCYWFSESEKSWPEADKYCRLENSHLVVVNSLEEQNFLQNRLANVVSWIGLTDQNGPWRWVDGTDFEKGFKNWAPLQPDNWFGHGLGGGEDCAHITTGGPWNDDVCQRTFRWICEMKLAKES

[2] = target: T2, recombinant human CLEC10A, extracellular domain (R&D Systems) (human) (UniProt Q8IUN9); assay: SPR, receptor immobilized on CM3 chip, VWF monomers as analyte
T2 sequence (looked up): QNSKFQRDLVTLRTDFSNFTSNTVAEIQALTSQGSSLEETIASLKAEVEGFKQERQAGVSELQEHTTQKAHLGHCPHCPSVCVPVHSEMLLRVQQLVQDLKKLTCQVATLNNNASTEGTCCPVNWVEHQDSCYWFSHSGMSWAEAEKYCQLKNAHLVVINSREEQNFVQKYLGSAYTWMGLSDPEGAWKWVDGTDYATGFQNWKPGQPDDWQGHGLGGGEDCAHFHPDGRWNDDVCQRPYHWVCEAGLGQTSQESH

[3] = target: T1, mouse MGL1 (CLEC10A orthologous mouse receptor protein) (mouse); assay: as above
[4] = target: T2, recombinant human CLEC10A, extracellular domain (R&D Systems) (human); assay: SPR (Biacore T200), CLEC10A immobilized on C1 chip, VWF monomers 31.25-4,000 nM as analyte

Measured: binding

purified monomeric human VWF (von Willebrand factor) (from UniProt P04275 764-2813) (ligand)
binds: all assays above
